Source: patent US12226412B2, “Heteroaryl-ketone fused azadecalin glucocorticoid receptor modulators” (Corcept Therapeutics, Inc., priority 2012, dated 2025)
For at least one compound, name, drawing or mass did not settle the structure.

Test system: induction of TAT by dexamethasone in HepG2 cells
Experiment: HepG2 tyrosine aminotransferase (TAT) assay
Assay type: cell-based, human
Details: challenge of 100 nM dexamethasone, Ki from IC50 by Cheng and Prusoff equation
Method: Example 21. HepG2 Tyrosine Aminotransferase (TAT) Assay
Glucocorticoid mediated activation of TAT occurs by transactivation of glucocorticoid response elements in the TAT promoter by glucocorticoid receptor agonist complex.
TAT activity was measured as outlined in the literature by A. Ali et al., J. Med. Chem., 2004, 47, 2441-2452.
HepG2 cells were cultured using MEME media supplemented with 10% (v/v) foetal bovine serum; 2 mM L-glutamine and 1% (v/v) NEAA at 37° C., 5%/95% (v/v) CO2/air. The HepG2 cells were counted and adjusted to yield a density of 0.125×10^6 cells/ml in RPMI 1640 without phenol red, 10% (v/v) charcoal stripped FBS, 2 mM L-glutamine and seeded at 25,000 cells/well in 200 μl into 96 well, sterile, tissue culture micro titre plates, and incubated at 37° C., 5% CO2 for 24 hours
Growth media was removed and replaced with assay media {RPMI 1640 without phenol red, 2 mM L-glutamine+10 μM forskolin}. […] Compounds were serially half log diluted in 100% (v/v) dimethylsupfoxide from a 10 mM stock.
HepG2 cells were then lysed with 30 μl of cell lysis buffer containing a protease inhibitor cocktail for 15 minutes at 4° C. 155 μl of substrate mixture was then added containing 5.4 mM Tyrosine sodium salt, 10.8 mM alpha ketoglutarate and 0.06 mM pyridoxal 5′ phosphate in 0.1M potassium phosphate buffer (pH 7.4). […] The TAT activity product was measured by absorbance at […]. […]

`O=C(c1ccccn1)[C@]12Cc3cnn(-c4ccc(F)cc4)c3C=C1CCN(S(=O)(=O)c1cncc(N3CCCCC3)c1)C2` [Example 10A, (R)-(1-(4-fluorophenyl)-6-((5-(piperidin-1-yl)pyridin-3-yl)sulfonyl)-4,4a,5,6,7,8-hexahydro-1H-pyrazolo[3,4-g]isoquinolin-4a-yl)(pyridin-2-yl)methanone] was tested. Which Ki did it give?
The Ki was less than 20 nM.

How did the Ki turn out when `Cc1cnc(C(=O)[C@]23Cc4cnn(-c5ccc(F)cc5)c4C=C2CCN(S(=O)(=O)c2ccc(Cl)c(Cl)c2)C3)s1` [Example 12O, (R)-(6-((3,4-dichlorophenyl)sulfonyl)-1-(4-fluorophenyl)-4,4a,5,6,7,8-hexahydro-1H-pyrazolo[3,4-g]isoquinolin-4a-yl)(5-methylthiazol-2-yl)methanone] was run?
The Ki was less than 20 nM.
